These are yes or no findings as the source states them, for the method shown. Some entries that bind do so weakly or less than the wild type. Tags and fused reporters may be left off the sequences shown.

The source of these data is PMC8373112.

Assay [1] concerns the target T1, RqcH^DR-FLAG3 (B. subtilis RqcH with the D97A/R98A double substitution in the NFACT-N domain, C-terminally FLAG3-tagged) (B. subtilis) (UniProt O34693).
T1 sequence: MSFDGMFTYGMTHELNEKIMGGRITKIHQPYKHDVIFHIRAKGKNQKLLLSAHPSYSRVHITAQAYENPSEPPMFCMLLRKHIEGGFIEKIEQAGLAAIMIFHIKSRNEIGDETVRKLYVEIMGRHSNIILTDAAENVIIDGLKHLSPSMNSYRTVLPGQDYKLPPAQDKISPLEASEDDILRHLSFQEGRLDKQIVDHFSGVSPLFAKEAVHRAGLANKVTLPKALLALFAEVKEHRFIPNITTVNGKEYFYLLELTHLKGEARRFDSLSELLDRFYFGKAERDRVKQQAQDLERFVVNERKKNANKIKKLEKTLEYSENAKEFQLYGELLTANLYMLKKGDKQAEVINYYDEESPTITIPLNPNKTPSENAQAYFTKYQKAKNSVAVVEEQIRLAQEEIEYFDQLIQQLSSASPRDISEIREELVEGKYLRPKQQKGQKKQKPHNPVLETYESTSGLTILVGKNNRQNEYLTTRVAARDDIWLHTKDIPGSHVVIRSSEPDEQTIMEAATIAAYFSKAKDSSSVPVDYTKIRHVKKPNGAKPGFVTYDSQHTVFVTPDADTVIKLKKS
As to the kind of experiment: cryo-EM structure; 50S RQC complexes formed in vivo, affinity-purified through C-terminally FLAG3-tagged RqcH^DR from B. subtilis lysate; focussed classification; overall resolution 3.2 Å, RqcH and other bound factors less well resolved.

Assay [2] concerns the target ribosomal protein uL11 (B. subtilis (endogenous in B. subtilis)) (UniProt Q06796). Described as above.

B1: RqcP (protein, UniProt P37557 1-86)
chain: MRLDKFLKVSRLIKRRTLAKEVADQGRISINGNQAKASSDVKPGDELTVRFGQKLVTVQVNELKDTTKKEEAANMYTILKEEKLGE
On to B1, for which the binding result in assay [1] was “binds”.

B2: RqcH^DR-FLAG3 (B. subtilis RqcH with the D97A/R98A double substitution in the NFACT-N domain, C-terminally FLAG3-tagged) (protein, UniProt O34693 1-570)
chain: MSFDGMFTYGMTHELNEKIMGGRITKIHQPYKHDVIFHIRAKGKNQKLLLSAHPSYSRVHITAQAYENPSEPPMFCMLLRKHIEGGFIEKIEQAGLAAIMIFHIKSRNEIGDETVRKLYVEIMGRHSNIILTDAAENVIIDGLKHLSPSMNSYRTVLPGQDYKLPPAQDKISPLEASEDDILRHLSFQEGRLDKQIVDHFSGVSPLFAKEAVHRAGLANKVTLPKALLALFAEVKEHRFIPNITTVNGKEYFYLLELTHLKGEARRFDSLSELLDRFYFGKAERDRVKQQAQDLERFVVNERKKNANKIKKLEKTLEYSENAKEFQLYGELLTANLYMLKKGDKQAEVINYYDEESPTITIPLNPNKTPSENAQAYFTKYQKAKNSVAVVEEQIRLAQEEIEYFDQLIQQLSSASPRDISEIREELVEGKYLRPKQQKGQKKQKPHNPVLETYESTSGLTILVGKNNRQNEYLTTRVAARDDIWLHTKDIPGSHVVIRSSEPDEQTIMEAATIAAYFSKAKDSSSVPVDYTKIRHVKKPNGAKPGFVTYDSQHTVFVTPDADTVIKLKKS
For B2, the binding entry in assay [2] is recorded as “binds”.
